Source: PubChem BioAssay AID504808 (Drosophila RNAi Screening Center, 2011)
The screen tested about 21,000 reagents; shown is an unselected part of those that have a named target and a result. Of all reagents, 18 (0.084%) were called active. 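Raw counts without plate normalisation, one of two replicates; the ratio scores behind the calls were not deposited.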 Entries without a mark were called inactive. A plus sign joins genes that one reagent is predicted to hit. Not stated in the record: the amount of reagent, the time to read-out.

- Assay: 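Fly genes required to hold E2F transcription in check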 (primary screen)
- Cell system: Drosophila S2 cells
- Reagent: long dsRNA against Drosophila genes
- Read-out: 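Firefly luciferase driven by E2F sites, normalised to Renilla luciferase on the same minimal promoter, measured by plate reader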
- Reading the numbers: E2F firefly: higher = more E2F reporter activity; Renilla normaliser: higher = more normaliser reporter signal
- Hit rule: 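Called active if the normalised E2F reporter went up by over 50%; the cutoff is arbitrary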

predicted target | amplicon | E2F firefly, rep 1 | Renilla normaliser, rep 1
UbcE2H (Ubiquitin conjugating enzyme E2H) | DRSC18221 | 8595 | 956
Hipk (Homeodomain interacting protein kinase) | DRSC07885 | 1.37e5 | 3918
Hipk (Homeodomain interacting protein kinase) | DRSC08507 | 74963 | 3357
CG8568 | DRSC20113 | 1.66e5 | 5809
Stt3B | DRSC16781 | 1.17e5 | 5671
CG9215 | DRSC20171 | 1.40e5 | 6054
Usp5 (Ubiquitin specific protease 5) | DRSC08244 | 1.12e5 | 4233
crp (cropped) | DRSC03515 | 83739 | 4365
CG13154 | DRSC06279 | 89030 | 3985
CG13159 | DRSC06283 | 91881 | 3598
CG1239 | DRSC12204 | 66050 | 3159
Rad60 | DRSC15580 | 1.08e5 | 5214
CG14194 | DRSC19549 | 1.27e5 | 485
RFeSP (Rieske iron-sulfur protein) | DRSC00702 | 1.62e5 | 6270
CG15814 | DRSC19730 | 1.72e5 | 6558
CG12123 | DRSC17818 | 8143 | 664
Mical (Molecule interacting with CasL) | DRSC14349 | 1.23e5 | 5735
Mical (Molecule interacting with CasL) | DRSC14351 | 1.22e5 | 5502
Mical (Molecule interacting with CasL) | DRSC15365 | 1.15e5 | 6790
Mical (Molecule interacting with CasL) | DRSC15366 | 1.32e5 | 7694
slbo (slow border cells) | DRSC04716 | 1.13e5 | 4928
CG40245 (retired record) | DRSC21012 | 88497 | 3521
DEF8 (differentially expressed in FDCP 8 homolog) | DRSC09840 | 78945 | 4234
Jon99Ciii (Jonah 99Ciii) | DRSC16859 | 79052 | 6337
Prosalpha6 (Proteasome alpha6 subunit) | DRSC03401 | 1.09e5 | 5591
SecCl (Secretory chloride channel) | DRSC10887 | 1.70e5 | 7562
CG14036 | DRSC02361 | 1.55e5 | 5113
CG14662 | DRSC12248 | 1.23e5 | 5408
CG8814 | DRSC00707 | 82208 | 3346
CG5509 | DRSC15822 | 1.47e5 | 6563
SC35 (SR family splicing factor SC35) | DRSC02502 | 82166 | 4027
SC35 (SR family splicing factor SC35) | DRSC03425 | 95072 | 4163
CG3355 | DRSC00598 | 1.45e5 | 5115
nesd (nessun dorma) | DRSC02099 | 88338 | 3755
Adgf-A (Adenosine deaminase-related growth factor A) | DRSC10566 | 66719 | 3592
Acer (Angiotensin-converting enzyme-related) | DRSC01852 | 86076 | 3330
CG8560 | DRSC10994 | 65617 | 3149
Tbc1d22 (TBC1 domain family member 22) | DRSC15867 | 59941 | 3306
CG13894 | DRSC08364 | 73854 | 3547
CG34133 | DRSC16319 | 1793 | 1020
CG11741 | DRSC14367 | 1.47e5 | 7578
CG13369 | DRSC18481 | 1.01e5 | 5840
CG4646 | DRSC06876 | 1.01e5 | 4188
CG6592 | DRSC10669 | 92233 | 3559
CG13458 | DRSC10005 | 67177 | 3704
CG1701 | DRSC06641 | 1.54e5 | 5301
cN-IIIB (cytosolic 5'-nucleotidase IIIB) | DRSC04359 | 82787 | 3968
geminin | DRSC04984 | 93185 | 4978
Rab9Fb (Rab at 9Fb) | DRSC19854 | 1.22e5 | 5869
opm (opossum) | DRSC20141 | 8230 | 796
POSH (Plenty of SH3s) | DRSC07499 | 1.47e5 | 5723
CG8611 | DRSC19340 | 1.49e5 | 5926
Nek2 | DRSC18124 | 8251 | 884
brv2 (brivido-2) | DRSC10226 | 1.50e5 | 8497
CG11723 | DRSC00324 | 1.05e5 | 3733

Taken from above:
For “Renilla normaliser, rep 1”, CG11741 [DRSC14367] has 7578
For “Renilla normaliser, rep 1”, Jon99Ciii (Jonah 99Ciii) [DRSC16859] shows 6337
For “E2F firefly, rep 1”, CG13154 [DRSC06279] has 89030
Value of CG34133 [DRSC16319] under “Renilla normaliser, rep 1”: 1020
Under “Renilla normaliser, rep 1”, SecCl (Secretory chloride channel) [DRSC10887] shows 7562
Result for CG9215 [DRSC20171] in “Renilla normaliser, rep 1”: 6054

The results go on.
predicted target | amplicon | E2F firefly, rep 1 | Renilla normaliser, rep 1
CG42324 | DRSC08431 | 1.09e5 | 4113
CG42324 | DRSC08432 | 1.09e5 | 4678
Cdk8 (Cyclin-dependent kinase 8) | DRSC11113 | 80211 | 3396
CG31086 + CG31323 | DRSC14902 | 96159 | 4946
AdipoR (Adiponectin receptor) | DRSC15767 | 60512 | 3642
Dhc16F (Dynein heavy chain at 16F) | DRSC20242 | 1.60e5 | 6795
Obp47a (Odorant-binding protein 47a) | DRSC06255 | 1.56e5 | 5087
Syx4 (Syntaxin 4) | DRSC18586 | 1.30e5 | 5702
CG15399 | DRSC00413 | 1.73e5 | 6022
Samtor (S-adenosylmethionine sensor upstream of TORC1) | DRSC04390 | 84342 | 2906
yrt (yurt) | DRSC16559 | 81463 | 3969
Crz (Corazonin) | DRSC16615 | 1.14e5 | 5741
CG13615 | DRSC14618 | 1.10e5 | 6249
Ak6 (Adenylate kinase 6) | DRSC07274 | 1.00e5 | 3866
grn (grain) | DRSC12666 | 65294 | 4030
grn (grain) | DRSC16961 | 1.36e5 | 6859
CG13218 | DRSC06340 | 99710 | 3996
CG11470 | DRSC14313 | 1.44e5 | 6997
Or88a (Odorant receptor 88a) | DRSC16770 | 1.08e5 | 5915
ranshi | DRSC16564 | 1.44e5 | 6858
nAChRalpha4 (nicotinic Acetylcholine Receptor alpha4) | DRSC11925 | 1.01e5 | 4286
COX8 (Cytochrome c oxidase subunit 8) | DRSC11814 | 1.35e5 | 6445
Dbct (Dihydrolipoamide branched chain transacylase E2) | DRSC19951 | 7790 | 768
alpha-Man-Ia (alpha-Mannosidase class I a) | DRSC17642 | 64865 | 2243
alpha-Man-Ia (alpha-Mannosidase class I a) | DRSC18162 | 1.33e5 | 6025
alpha-Man-Ia (alpha-Mannosidase class I a) | DRSC18163 | 1.28e5 | 4957
alpha-Man-Ia (alpha-Mannosidase class I a) | DRSC18735 | 1.06e5 | 5922
mei-P22 (meiotic P22) | DRSC11366 | 97033 | 4613
Hmx (H6-like-homeobox) | DRSC15884 | 1.11e5 | 5456
Hmx (H6-like-homeobox) | DRSC16706 | 94734 | 4460
